Publication PMC11078946
No constants are given. Whether binding was seen depends on the method and setting. Binding seen in cells or lysates may run through a third protein. Some binding calls cover weakened binding; strength is not graded here.

Chains of the proteins cited; added tags and fusions are not shown.
UniProt Q86VP6: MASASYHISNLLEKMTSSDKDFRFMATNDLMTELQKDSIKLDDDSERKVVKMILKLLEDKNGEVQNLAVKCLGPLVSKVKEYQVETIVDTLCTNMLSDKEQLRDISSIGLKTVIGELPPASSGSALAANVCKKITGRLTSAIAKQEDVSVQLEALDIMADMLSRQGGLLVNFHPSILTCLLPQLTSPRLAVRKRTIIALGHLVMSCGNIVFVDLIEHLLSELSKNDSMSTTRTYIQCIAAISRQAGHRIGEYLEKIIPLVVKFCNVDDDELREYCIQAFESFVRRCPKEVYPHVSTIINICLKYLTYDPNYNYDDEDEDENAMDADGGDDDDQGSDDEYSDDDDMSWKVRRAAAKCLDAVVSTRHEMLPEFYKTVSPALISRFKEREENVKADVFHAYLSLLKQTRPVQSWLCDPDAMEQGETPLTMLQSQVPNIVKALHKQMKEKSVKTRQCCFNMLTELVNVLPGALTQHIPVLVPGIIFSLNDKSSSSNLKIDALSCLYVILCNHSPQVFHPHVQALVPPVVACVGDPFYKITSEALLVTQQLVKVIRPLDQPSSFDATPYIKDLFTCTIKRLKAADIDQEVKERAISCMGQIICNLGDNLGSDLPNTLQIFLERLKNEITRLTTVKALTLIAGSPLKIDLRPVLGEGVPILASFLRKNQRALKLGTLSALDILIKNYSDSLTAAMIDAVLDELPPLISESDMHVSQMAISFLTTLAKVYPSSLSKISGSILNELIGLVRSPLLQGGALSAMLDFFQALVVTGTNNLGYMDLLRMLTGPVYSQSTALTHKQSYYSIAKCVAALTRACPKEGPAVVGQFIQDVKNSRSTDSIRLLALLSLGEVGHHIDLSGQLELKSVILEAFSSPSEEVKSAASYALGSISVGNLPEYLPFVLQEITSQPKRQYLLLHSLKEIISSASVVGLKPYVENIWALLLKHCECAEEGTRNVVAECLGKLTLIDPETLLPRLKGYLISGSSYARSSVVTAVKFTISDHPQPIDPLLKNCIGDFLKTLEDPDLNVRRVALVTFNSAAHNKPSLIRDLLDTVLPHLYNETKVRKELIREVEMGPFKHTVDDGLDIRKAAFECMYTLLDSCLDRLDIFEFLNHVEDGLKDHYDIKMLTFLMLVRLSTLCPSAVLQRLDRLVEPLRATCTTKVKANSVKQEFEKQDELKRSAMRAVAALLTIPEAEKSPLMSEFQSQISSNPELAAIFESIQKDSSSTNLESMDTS

Biological target: GST-OspG L99R/P102E (S. flexneri 2a strain 2457T) (UniProt Q99PZ6)
Assay: pull-down; glutathione resins coated with purified GST-OspG, its variants or GST alone, incubated with lysates of Flag-CAND1-expressing 293T cells; eluates blotted with anti-Flag and anti-GST; only the target purified

For Flag-CAND1 (from UniProt Q86VP6 1-1230), the binding was “binds”.
